Results from article doi:10.1101/2023.04.17.537228.
Where two headings read alike, the source gives them in different places. Results are given in words; binding and its absence hold for the method and conditions named. In cells and extracts the contact can be indirect. Some results given as binding are weak or reduced against the parent protein; the word gives no strength.

Chains of the proteins cited; added tags and fusions are not shown. Lines headed by an entry give the natural chain unless they say otherwise; changes in a name come on top.
UniProt Q7TQK4: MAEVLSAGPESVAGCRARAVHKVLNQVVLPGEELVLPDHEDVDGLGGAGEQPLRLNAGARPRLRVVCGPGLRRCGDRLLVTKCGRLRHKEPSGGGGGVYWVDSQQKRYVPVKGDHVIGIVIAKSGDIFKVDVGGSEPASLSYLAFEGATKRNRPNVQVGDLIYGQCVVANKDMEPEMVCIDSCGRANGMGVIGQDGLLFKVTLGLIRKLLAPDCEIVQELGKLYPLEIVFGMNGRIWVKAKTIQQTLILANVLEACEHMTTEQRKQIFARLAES
UniProt Q9JHI7: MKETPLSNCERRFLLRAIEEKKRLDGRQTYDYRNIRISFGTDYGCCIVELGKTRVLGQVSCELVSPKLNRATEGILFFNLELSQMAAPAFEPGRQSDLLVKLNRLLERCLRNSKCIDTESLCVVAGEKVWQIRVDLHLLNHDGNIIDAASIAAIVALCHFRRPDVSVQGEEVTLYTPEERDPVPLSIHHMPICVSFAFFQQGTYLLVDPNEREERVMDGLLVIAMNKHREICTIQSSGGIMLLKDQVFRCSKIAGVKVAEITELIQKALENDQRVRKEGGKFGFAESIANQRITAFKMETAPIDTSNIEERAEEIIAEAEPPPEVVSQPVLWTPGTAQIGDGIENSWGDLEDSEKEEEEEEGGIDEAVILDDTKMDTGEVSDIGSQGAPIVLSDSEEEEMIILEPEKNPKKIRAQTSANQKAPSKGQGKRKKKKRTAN

Legend:
Test in all cases: co-IP
myc-EXOSC3 = myc-EXOSC3 (UniProt Q7TQK4)
[1] = target: EXOSC3 (mouse (endogenous in N2A)) (UniProt Q7TQK4)
[2] = target: EXOSC3 (mouse (endogenous in N2A)) (UniProt Q7TQK4); remark: listed apart in the source

Measured: binding

EXOSC9 (from UniProt Q9JHI7 1-438)
binds: all assays above
